# Test results from PubChem BioAssay AID587 (National Center for Advancing Translational Sciences (NCATS), 2007).
# In all, about 59,000 compounds went through this assay and about 35 (0.06%) were called active. Inconclusive means that the source gave no clear call. Such entries were picked first, then a sample of the others. Cut-off read from the data, not from the text of the source: active = max dye-equivalent concentration above about 10 nM; inconclusive = between about 1.1 nM and that limit; inactive = weaker than that.
# Assay: qHTS Assay for Spectroscopic Profiling in Texas Red Spectral Region
# Details: Compound fluorescence, Texas Red channel, 547/618 nm; active compounds read high
# Outline: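 Spectral interference profiling: each compound concentration's relative fluorescence, read with a 547 nm excitation and 618 nm emission filter pair, was normalized to a per-plate Texas Red standard curve.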
row,Structure (SMILES),max dye-equivalent concentration
1,CC1(C)Cc2c(sc3nc(SCC#N)n(C4CCCCC4)c(=O)c23)CO1,inconclusive: 1.1 nM
2,Cn1c(SCc2ccccc2F)nc2cccnc21,inconclusive: 2 nM
3,COc1ccc(C(c2nnnn2Cc2ccc(F)cc2)N2CCN(c3ccc(OC)cc3)CC2)cc1 (configuration not stated),inconclusive: 1.5 nM
4,COC(=O)c1ccc(-c2ccc(C(=O)N3CCCN(C)CC3)cc2)cc1,inconclusive: 2.6 nM
5,CCc1ccc(-c2nc(CN3CCC(C(=O)NCc4ccccc4OC)CC3)c(C)o2)cc1,inconclusive: 1.3 nM
6,O=S(=O)(Nc1nc2ccccc2nc1N1CCN(c2ccccn2)CC1)c1ccc(Cl)cc1,inactive
7,CCOC(=O)N1CCN(C(=O)CCn2nc(-c3ccccc3)ccc2=O)CC1,inconclusive: 1.2 nM
8,COc1ccc(NC(=O)N2CCCC(c3nc(-c4ccc(C(C)C)cc4)no3)C2)cc1 (configuration not stated),inconclusive: 1.1 nM
9,Cc1ccc(C(=O)NCCCNCCCN(C)C)cn1,inconclusive: 1.7 nM
10,O=C1CNCc2[nH]c3ccccc3c2N1c1ccccc1,inconclusive: 3.5 nM
11,Cn1c(=O)c2cn(-c3cccc4ccccc34)cc2n(C)c1=O,inconclusive: 1.1 nM
12,CCOc1ccc(C2C=C(c3ccc(C)cc3)Nc3nnnn32)cc1 (configuration not stated),inactive
13,Cc1ccc(NCc2nnc(SCC(=O)c3ccccc3)o2)c(C)c1,inconclusive: 2 nM
14,COCC(C)NC(=O)C1CC(c2cccc(Br)c2)=NO1 (configuration not stated),inconclusive: 1.1 nM
15,CCOC(=O)c1c(NC(=O)CSc2nnc(CNc3ccc(OC)cc3)n2C)sc(C)c1C,inconclusive: 1.2 nM
16,CN(C)C(=O)CSc1nc2ccccc2c(=O)[nH]1,inconclusive: 1.1 nM
17,COc1ccccc1N1CCN(C(=O)CSc2nnc(NC(=O)C3CC3)s2)CC1,inconclusive: 2.1 nM
18,COc1cccc(CSCC(=O)O)c1,inactive
19,COc1ccc(CNc2ccnc(-c3cccnc3)n2)c(OC)c1,inconclusive: 1.1 nM

row,Structure (SMILES),max dye-equivalent concentration
1,CCNc1cccc2c1C(=O)N(C)C2=O,inactive
2,CC(C)(C)N(Cc1ccccc1)C(=O)c1ccc2c(c1)OCCO2,inconclusive: 1.1 nM
3,CC(=O)N1CCCc2cc(S(=O)(=O)N3CCc4ccccc4C3)ccc21,inconclusive: 1.4 nM
4,O=C(Nc1cccc(F)c1)N1CC2(CCN(S(=O)(=O)c3ccccc3)CC2)C1,inactive
5,Cc1ccc(SCC(=O)NCCCN2CCOCC2)cc1,inconclusive: 2.3 nM
6,C=C(CO)[C@H]1Cc2c(ccc3c(=O)c4c(oc23)COc2cc(OC)c(OC)cc2-4)O1,inactive
7,COc1ccc(-n2ncc3c(N4CCc5ccccc54)ncnc32)cc1,inactive
8,COc1ccc(CCN(C)C(=O)CN2C(=O)c3ccccc3S2(=O)=O)cc1OC,inconclusive: 3 nM
9,N=C1[C@@H](O)[C@]2(I)c3ccccc3N3C(=N)[C@H](O)[C@@H]4c5ccccc5N1[C@@H]4[C@@H]32,inconclusive: 4.7 nM
10,O=C(Nc1ccccn1)N1CCOCC1,inconclusive: 1.3 nM
11,CN(C)c1ccc(-c2ccc3ncnc(N(C)Cc4ccco4)c3c2)cc1,inactive
12,CSc1ncccc1C(=O)OCc1ccccc1F,inconclusive: 1.4 nM
13,CCOc1cc(CNc2ncc(-c3ccc(OC)cc3)n2C)ccc1O,inconclusive: 1.5 nM
14,CCOC(=O)c1c(C)[nH]c(C(=O)COC(=O)c2ccncc2)c1C,inconclusive: 2 nM
15,CC1CN(c2nc3ccccc3nc2C(C#N)C(=O)NCc2ccc3c(c2)OCO3)CC(C)O1 (configuration not stated),inactive
16,CCCNCc1cc(OCC)c(OCC(N)=O)cc1Br,inconclusive: 1.9 nM
17,Cc1noc(C)c1C(=O)N1CCN(c2ncccn2)CC1,inconclusive: 1.1 nM
18,CCCN(CCC)S(=O)(=O)c1cc(Br)cc2c1N(C(=O)CC)CC2,inconclusive: 1.1 nM
19,Fc1ccc(CSc2ncnc3c2oc2ccccc23)cc1,inconclusive: 2.3 nM

row,Structure (SMILES),max dye-equivalent concentration
1,COCc1nc2ccccc2n1Cc1ccccc1,inconclusive: 1.7 nM
2,CN(C)C(CNC(=O)CN1C(=O)NC2(CCc3ccccc32)C1=O)c1ccco1 (configuration not stated),inconclusive: 1.5 nM
3,CC1=CC(=O)c2ccccc2C1=O,inactive
4,CC1CCCCN1C(=O)CSc1nnc(-c2ccco2)n1CC1CCCO1 (configuration not stated),inconclusive: 1.8 nM
5,COc1cccc(OC)c1C(=O)N1CC(C)OC(C)C1 (configuration not stated),inconclusive: 1.3 nM
6,CN(C1CCS(=O)(=O)C1)S(=O)C12CC3CC(CC(C3)C1)C2 (configuration not stated),inconclusive: 2.4 nM
7,Cc1cc(N2CCCCC2)n2nc(C)c(-c3ccccc3)c2n1,inconclusive: 1.5 nM
8,CC(=O)NC1CC2CCCC(C1)N2CC(=O)Nc1ccccc1 (configuration not stated),inconclusive: 1.7 nM
9,O=C(COC(=O)C1(c2ccccc2F)CCCC1)NC1CCS(=O)(=O)C1 (configuration not stated),inconclusive: 1.6 nM
10,O=C(OCCCc1ccncc1)c1ccc(S(=O)(=O)N2CCOCC2)cc1,inconclusive: 1.1 nM
11,CCOC(=O)c1c(C)oc2c1c(C(c1ccncc1)N1CCOCC1)c(O)c1ccccc12 (configuration not stated),inconclusive: 1.5 nM
12,CCCCOC(=O)c1ccc(O)cc1,inconclusive: 1.1 nM
13,NC(=O)c1ccsc1NC(=O)COC(=O)c1ccccc1NCc1ccco1,inconclusive: 1.1 nM
14,CN(C)c1ccc(NC(=O)CN2CCN(CC(=O)Nc3ccc(F)cc3)CC2)cc1,inconclusive: 1.6 nM
15,O=C(O)Cc1ccc(O)c(O)c1,inconclusive: 1.3 nM
16,CN(CC(=O)NCc1ccc(Cl)cc1)S(=O)(=O)c1cccc2nsnc12,inconclusive: 1.1 nM
17,CCOC(=O)c1ccc(NC(=O)CSc2nnc(COc3ccccc3)n2C)cc1,inconclusive: 1.5 nM
18,COc1ccc(CCNC(=O)CN2CCC(n3nnc4cc(F)ccc43)CC2)cc1OC,inconclusive: 1.2 nM
19,O=C(c1cccc2cccc(O)c12)N1CCCCC1,inconclusive: 1.1 nM

# Of the compounds above, these contain an NH in an aromatic ring:
row,Structure (SMILES),max dye-equivalent concentration
10,O=C1CNCc2[nH]c3ccccc3c2N1c1ccccc1,inconclusive: 3.5 nM
16,CN(C)C(=O)CSc1nc2ccccc2c(=O)[nH]1,inconclusive: 1.1 nM
14,CCOC(=O)c1c(C)[nH]c(C(=O)COC(=O)c2ccncc2)c1C,inconclusive: 2 nM
